Experimental findings from PubChem BioAssay AID272 (DTP/NCI, 2004) are described below.

The list does not hold the whole screen: it is rich in T/C values a quarter to a half above the control, in often repeated tests (any T/C) and in doses without a T/C. Other doses and runs of a compound stand elsewhere. T/C gives the treated animals as a percentage of the vehicle group. Some doses have a count of surviving animals in place of a T/C: the source files T/C as zero there, which appears to mark a toxic dose or a test without result, not a measured value. Some doses without a T/C left all or most animals alive at the check, yet need not have been tolerated: the source hardly ever lists a survival T/C far under the control, and the zero likely stands for such cases as well. Counts of survivors are from the toxicity check (mostly the fifth day) where no day follows; animals may have died later. Schedule codes are those of the source, taken here to give the interval after Q, in days (D) or hours (H), and the number of doses after X. Some doses were run more than once; the values are given in rising order. Brackets with × say how often a value occurs here. For survival time, the PubChem record calls one and a half times the control and up active, and a quarter to a half above the control has no call in these data; cut-offs in other NCI protocols can differ. Residues, ends and D or L forms follow the SMILES beside them. *: point of attachment. Trt = c1ccc(C(c2ccccc2)(c2ccccc2)*)cc1; Bn = c1ccc(C*)cc1

The subject of the experiment is Lewis lung carcinoma i.m., BDF1 mice, T/C %. The experiment in a line: NCI In Vivo Anticancer Drug Screen. Data for tumor model Lewis Lung Carcinoma (intramuscular) in B6D2F1 (BDF1) mice. Put shortly: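 Value is the ratio of a treated-group measurement (T) to the matching vehicle-control measurement (C), using either survival or tumour size in mice bearing transplanted tumours.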

The mark [1] stands for this setting: T/C endpoint: median survival time, dose: 100.0 mg/kg/injection, schedule: Q01DX011 (ip), vehicle: saline with Tween-80, higher T/C = longer survival.
The mark [2] stands for this setting: T/C endpoint: median survival time, dose: 200.0 mg/kg/injection, schedule: Q01DX011 (ip), vehicle: saline, higher T/C = longer survival.
The mark [3] stands for this setting: T/C endpoint: median survival time, dose: 25.0 mg/kg/injection, schedule: Q01DX011 (ip), vehicle: saline with Tween-80, higher T/C = longer survival.
Setting [4] is: T/C endpoint: median survival time, dose: 50.0 mg/kg/injection, schedule: Q01DX011 (ip), vehicle: saline with Tween-80, higher T/C = longer survival.
Setting [5] is: T/C endpoint: median survival time, dose: 16.0 mg/kg/injection, schedule: Q01DX009 (ip), vehicle: Klucel (hydroxypropylcellulose) (HPC), higher T/C = longer survival.
The mark [6] stands for this setting: T/C endpoint: median survival time, dose: 50.0 mg/kg/injection, schedule: Q01DX011 (ip), vehicle: saline, higher T/C = longer survival.

For the molecule `Nc1nc(CCl)nc(Nc2ccccc2)n1`, the survivor count is, setting by setting: (T/C endpoint: mean tumor weight (est.), dose: 200.0 mg/kg/injection, schedule: Q01DX011 (ip), vehicle: saline with Tween-80, higher T/C = larger tumour) 5 of 8; (T/C endpoint: mean tumor weight (est.), dose: 400.0 mg/kg/injection, schedule: Q01DX011 (ip), vehicle: saline with Tween-80, higher T/C = larger tumour) 4 of 8; (T/C endpoint: median survival time, dose: 200.0 mg/kg/injection, schedule: Q01DX011 (ip), vehicle: saline with Tween-80, higher T/C = longer survival) 5 of 8; (T/C endpoint: median survival time, dose: 400.0 mg/kg/injection, schedule: Q01DX011 (ip), vehicle: saline with Tween-80, higher T/C = longer survival) 4 of 8.
Turning to `FC(F)(F)c1nc2nc(Cl)c(Cl)nc2[nH]1`, the survivor count reads like this: (T/C endpoint: median survival time, dose: 4.0 mg/kg/injection, schedule: Q01DX011 (ip), vehicle: saline, higher T/C = longer survival) 7 of 8; (T/C endpoint: median survival time, dose: 64.0 mg/kg/injection, schedule: Q01DX011 (ip), vehicle: saline, higher T/C = longer survival) 8 of 8; (T/C endpoint: median survival time, dose: 128.0 mg/kg/injection, schedule: Q01DX011 (ip), vehicle: saline, higher T/C = longer survival) 3 of 8.
Regarding `O=[N+]([O-])c1cc([N+](=O)[O-])c(Nn2c3ccccc3c3ccccc32)c([N+](=O)[O-])c1`, the survivor count under setting [1] is 1 of 8.
On to `Cc1[nH]c(=O)[nH]c(=O)c1N(CCF)CCCl`, for which the survivor count is, setting by setting: (T/C endpoint: median survival time, dose: 5.0 mg/kg/injection, schedule: Q01DX011 (ip), vehicle: saline with Tween-80, higher T/C = longer survival) 8 of 8; (T/C endpoint: median survival time, dose: 10.0 mg/kg/injection, schedule: Q01DX011 (ip), vehicle: saline with Tween-80, higher T/C = longer survival) 8 of 8; (T/C endpoint: median survival time, dose: 20.0 mg/kg/injection, schedule: Q01DX011 (ip), vehicle: saline with Tween-80, higher T/C = longer survival) 7 of 8; (T/C endpoint: median survival time, dose: 20.0 mg/kg/injection, schedule: Q01DX011 (ip), vehicle: saline, higher T/C = longer survival) 7 of 8; (T/C endpoint: median survival time, dose: 40.0 mg/kg/injection, schedule: Q01DX011 (ip), vehicle: saline with Tween-80, higher T/C = longer survival) 1 of 8 and 6 of 8; (T/C endpoint: median survival time, dose: 40.0 mg/kg/injection, schedule: Q01DX011 (ip), vehicle: saline, higher T/C = longer survival) 0 of 8. The survivor count (T/C endpoint: median survival time, dose: 80.0 mg/kg/injection, schedule: Q01DX011 (ip), vehicle: saline with Tween-80, higher T/C = longer survival) was 0 of 8 (2×).
For `CC1C=CC(C(N)C(=O)O)O1` (centres undefined), the survivor count by setting is: (T/C endpoint: median survival time, dose: 100.0 mg/kg/injection, schedule: Q01DX011 (ip), vehicle: saline, higher T/C = longer survival) 0 of 8; under setting [2], 0 of 8; (T/C endpoint: median survival time, dose: 400.0 mg/kg/injection, schedule: Q01DX011 (ip), vehicle: saline, higher T/C = longer survival) 0 of 8.
On to `Cc1nc2ccccc2nc1CBr`, for which the survivor count runs as follows: (T/C endpoint: mean tumor weight (est.), dose: 25.0 mg/kg/injection, schedule: Q01DX011 (ip), vehicle: saline with Tween-80, higher T/C = larger tumour) 2 of 8; under setting [3], 2 of 8; under setting [4], 0 of 8.
For the molecule `COC(=O)C(CSC(c1ccccc1)(c1ccccc1)c1ccccc1)NC(=O)C(CSCc1ccccc1)NC(C)=O` (centres undefined) (Ac-Cys(Bn)-Cys(Trt)-OMe; configuration not given here), the T/C (T/C endpoint: median survival time, dose: 4.0 mg/kg/injection, schedule: Q01DX009 (ip), vehicle: Klucel (hydroxypropylcellulose) (HPC), higher T/C = longer survival) was 148 % of control and the T/C under setting [5] is 143 % of control.
With `Nc1n[nH]c(N)n1`, the survivor count (T/C endpoint: mean tumor weight, dose: 500.0 mg/kg/injection, schedule: Q03HX024 (ip), vehicle: water, higher T/C = larger tumour) is recorded as 3 of 8; the survivor count (T/C endpoint: mean tumor weight, dose: 1500.0 mg/kg/injection, schedule: Q01DX009 (ip), vehicle: water, higher T/C = larger tumour) was 5 of 8; the survivor count (T/C endpoint: mean tumor weight, dose: 1500.0 mg/kg/injection, schedule: Q01DX011 (ip), vehicle: water, higher T/C = larger tumour) is given as 5 of 8. Under “T/C endpoint: median survival time, dose: 1500.0 mg/kg/injection, schedule: Q01DX009 (ip), vehicle: water, higher T/C = longer survival”, the T/C was 126 % of control.
For `CN1Cc2c(ccc3c2OCO3)[C@@H]2[C@H](O)Cc3cc4c(cc3[C@@H]21)OCO4`, the survivor count is, setting by setting: (T/C endpoint: mean tumor weight, dose: 250.0 mg/kg/injection, schedule: Q01DX011 (ip), vehicle: saline, higher T/C = larger tumour) 3 of 8; (T/C endpoint: median survival time, dose: 250.0 mg/kg/injection, schedule: Q01DX011 (ip), vehicle: saline, higher T/C = longer survival) 3 of 8.
As for `Clc1ccc(C(c2ccccc2Cl)C(Cl)Cl)cc1` (centres undefined), the survivor count is, setting by setting: (T/C endpoint: median survival time, dose: 200.0 mg/kg/injection, schedule: Q01DX011 (ip), vehicle: Klucel (hydroxypropylcellulose) (HPC), higher T/C = longer survival) 6 of 8; (T/C endpoint: median survival time, dose: 400.0 mg/kg/injection, schedule: Q01DX011 (ip), vehicle: Klucel (hydroxypropylcellulose) (HPC), higher T/C = longer survival) 5 of 8; (T/C endpoint: median survival time, dose: 800.0 mg/kg/injection, schedule: Q01DX011 (ip), vehicle: Klucel (hydroxypropylcellulose) (HPC), higher T/C = longer survival) 8 of 8.
Turning to `COC12C(COC(N)=O)C3=C(C(=O)C(C)=C(N)C3=O)N1CC1C2N1C` (centres undefined), the survivor count (T/C endpoint: median survival time, dose: 4.0 mg/kg/injection, schedule: Q01DX011 (ip), vehicle: saline + alcohol, higher T/C = longer survival) was 10 of 10; the survivor count (T/C endpoint: median survival time, dose: 8.0 mg/kg/injection, schedule: Q01DX009 (ip), vehicle: Klucel (hydroxypropylcellulose) (HPC), higher T/C = longer survival) is 10 of 10; the survivor count (T/C endpoint: median survival time, dose: 8.0 mg/kg/injection, schedule: Q01DX011 (ip), vehicle: saline + alcohol, higher T/C = longer survival) was 6 of 10 and 10 of 10; the survivor count under setting [5] is given as 10 of 10; the survivor count (T/C endpoint: median survival time, dose: 16.0 mg/kg/injection, schedule: Q01DX011 (ip), vehicle: saline + alcohol, higher T/C = longer survival) was 0 of 10 and 7 of 10; the survivor count (T/C endpoint: median survival time, dose: 32.0 mg/kg/injection, schedule: Q01DX009 (ip), vehicle: Klucel (hydroxypropylcellulose) (HPC), higher T/C = longer survival) is reported as 10 of 10. Moreover, the survivor count (T/C endpoint: median survival time, dose: 32.0 mg/kg/injection, schedule: Q01DX011 (ip), vehicle: saline + alcohol, higher T/C = longer survival) is given as 0 of 10.
Regarding `Cc1c(N)nc(C(CC(N)=O)NCC(N)C(N)=O)nc1C(=O)NC(C(=O)NC(C)C(O)C(C)C(=O)NC(C(=O)NCCc1nc(-c2nc(C(=O)NCCC[S+](C)C)cs2)cs1)C(C)O)C(OC1OC(CO)C(O)C(O)C1OC1OC(CO)C(O)C(OC(N)=O)C1O)c1cnc[nH]1` (centres undefined), the T/C (T/C endpoint: median survival time, dose: 2.3 mg/kg/injection, schedule: Q01DX011 (ip), vehicle: saline, higher T/C = longer survival) is 133 % of control and the T/C (T/C endpoint: median survival time, dose: 3.9 mg/kg/injection, schedule: Q01DX011 (ip), vehicle: saline, higher T/C = longer survival) is 141 % of control. Moreover, the survivor count by setting is: (T/C endpoint: median survival time, dose: 30.0 mg/kg/injection, schedule: Q01DX011 (ip), vehicle: saline, higher T/C = longer survival) 3 of 8; under setting [6], 0 of 8.
On to `CC1OC(=O)C(C2OC2C)=CC1O` (centres undefined), for which the survivor count under setting [6] is on record as 0 of 8.
For the molecule `CCCC(=O)Nc1ncnc2c1ncn2C1OC2COP(=O)(O)OC2C1OC(=O)CCC` (centres undefined), the survivor count under setting [2] is given as 7 of 7.
In the case of `O=[N+]([O-])c1cc(Cl)cc2c1nc(NCCO)c1ccccc12`, the survivor count by setting is: (T/C endpoint: mean tumor weight (est.), dose: 50.0 mg/kg/injection, schedule: Q01DX011 (ip), vehicle: saline with Tween-80, higher T/C = larger tumour) 1 of 8; under setting [3], 7 of 8; under setting [4], 1 of 8; under setting [1], 0 of 8.
